Construct, isoform or probe ends are uncertain for at least one entry. A negative result means that nothing was seen under these conditions.
Each sequence was assayed on GST-SlMADS48 (Solanum lycopersicum (tomato)) (assay: EMSA). Details: EMSA with purified GST-SlMADS48 and 5'-biotin probes, PAGE, chemiluminescent detection; pH and temperature not stated; recombinant protein; protein details: N-terminal GST (pGEX4T-1); label: 5'-biotin on both strands.
“ATGAACAACCCTATTTATAGAGTGAGAAAT (double strand) [SlTM3 promoter CArG M1 probe]”: binds. “ATTAAAGGGTATATACTTTAATTTGGATTTAAGTGTATTT (double strand) [SlcycD6;1 promoter CArG M2 probe]”: binds. “ATTTTGAATACTATAAATAGTGATGTAGTT (double strand) [SlTM3 promoter CArG M2 probe]”: binds. “CTATGAGAGGCTTAATATAGTAGTATGTTG (double strand) [SlTM3 promoter CArG M3 probe]”: no binding. “TTCAAATGCAAATTTCTTATTAAAGTTTGAATTTTAAAAA (double strand) [SlIAA29 promoter CArG M5 probe]”: binds.
